Results: paper PMC7364817
Results are given in words; binding and its absence hold for the method and conditions named. Binding seen in cells or lysates may run through a third protein. These calls come from enrichment with a bait or labelling near it, and not all partners need be listed. Where a sequence is shown, tags or fusion partners need not be part of it.

T1: FLAG-tagged SMCR8 (Smith-Magenis Syndrome Chromosome Region, Candidate 8) (UniProt Q8TEV9)
T1 sequence: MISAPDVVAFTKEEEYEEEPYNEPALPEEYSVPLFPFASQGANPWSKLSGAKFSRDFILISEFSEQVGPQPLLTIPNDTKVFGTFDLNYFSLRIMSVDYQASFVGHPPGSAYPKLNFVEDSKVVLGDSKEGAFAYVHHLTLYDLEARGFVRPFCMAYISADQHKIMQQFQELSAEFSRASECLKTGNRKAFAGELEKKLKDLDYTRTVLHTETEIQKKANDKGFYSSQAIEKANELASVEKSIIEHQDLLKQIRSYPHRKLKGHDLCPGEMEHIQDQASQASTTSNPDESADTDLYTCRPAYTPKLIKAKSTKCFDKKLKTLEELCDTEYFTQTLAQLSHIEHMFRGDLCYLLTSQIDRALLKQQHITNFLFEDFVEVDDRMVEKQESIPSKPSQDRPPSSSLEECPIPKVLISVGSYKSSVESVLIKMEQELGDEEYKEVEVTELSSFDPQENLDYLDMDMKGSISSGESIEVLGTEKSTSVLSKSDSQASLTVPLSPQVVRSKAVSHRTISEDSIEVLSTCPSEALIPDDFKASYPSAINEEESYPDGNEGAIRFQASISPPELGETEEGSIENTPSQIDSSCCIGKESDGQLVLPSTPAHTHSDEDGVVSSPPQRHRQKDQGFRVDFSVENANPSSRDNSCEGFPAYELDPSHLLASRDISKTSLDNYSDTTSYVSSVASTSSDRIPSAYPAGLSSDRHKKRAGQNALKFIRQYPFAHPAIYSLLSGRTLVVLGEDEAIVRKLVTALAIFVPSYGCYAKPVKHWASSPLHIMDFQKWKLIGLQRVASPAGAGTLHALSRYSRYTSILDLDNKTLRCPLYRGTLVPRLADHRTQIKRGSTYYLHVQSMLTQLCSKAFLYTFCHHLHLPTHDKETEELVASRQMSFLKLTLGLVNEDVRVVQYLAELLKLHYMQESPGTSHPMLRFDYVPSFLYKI

B1: unc-45 myosin chaperone A (protein, UniProt Q9H3U1 1-944)
chain: MTVSGPGTPEPRPATPGASSVEQLRKEGNELFKCGDYGGALAAYTQALGLDATPQDQAVLHRNRAACHLKLEDYDKAETEASKAIEKDGGDVKALYRRSQALEKLGRLDQAVLDLQRCVSLEPKNKVFQEALRNIGGQIQEKVRYMSSTDAKVEQMFQILLDPEEKGTEKKQKASQNLVVLAREDAGAEKIFRSNGVQLLQRLLDMGETDLMLAALRTLVGICSEHQSRTVATLSILGTRRVVSILGVESQAVSLAACHLLQVMFDALKEGVKKGFRGKEGAIIVDPARELKVLISNLLDLLTEVGVSGQGRDNALTLLIKAVPRKSLKDPNNSLTLWVIDQGLKKILEVGGSLQDPPGELAVTANSRMSASILLSKLFDDLKCDAERENFHRLCENYIKSWFEGQGLAGKLRAIQTVSCLLQGPCDAGNRALELSGVMESVIALCASEQEEEQLVAVEALIHAAGKAKRASFITANGVSLLKDLYKCSEKDSIRIRALVGLCKLGSAGGTDFSMKQFAEGSTLKLAKQCRKWLCNDQIDAGTRRWAVEGLAYLTFDADVKEEFVEDAAALKALFQLSRLEERSVLFAVASALVNCTNSYDYEEPDPKMVELAKYAKQHVPEQHPKDKPSFVRARVKKLLAAGVVSAMVCMVKTESPVLTSSCRELLSRVFLALVEEVEDRGTVVAQGGGRALIPLALEGTDVGQTKAAQALAKLTITSNPEMTFPGERIYEVVRPLVSLLHLNCSGLQNFEALMALTNLAGISERLRQKILKEKAVPMIEGYMFEEHEMIRRAATECMCNLAMSKEVQDLFEAQGNDRLKLLVLYSGEDDELLQRAAAGGLAMLTSMRPTLCSRIPQVTTHWLEILQALLLSSNQELQHRGAVVVLNMVEASREIASTLMESEMMEILSVLAKGDHSPVTRAAAACLDKAVEYGLIQPNQDGE
B2: DnaJ heat shock protein family (Hsp40) member C10 (protein, UniProt Q8IXB1 33-793)
chain: DQDFYSLLGVSKTASSREIRQAFKKLALKLHPDKNPNNPNAHGDFLKINRAYEVLKDEDLRKKYDKYGEKGLEDNQGGQYESWNYYRYDFGIYDDDPEIITLERREFDAAVNSGELWFVNFYSPGCSHCHDLAPTWRDFAKEVDGLLRIGAVNCGDDRMLCRMKGVNSYPSLFIFRSGMAPVKYHGDRSKESLVSFAMQHVRSTVTELWTGNFVNSIQTAFAAGIGWLITFCSKGGDCLTSQTRLRLSGMLDGLVNVGWMDCATQDNLCKSLDITTSTTAYFPPGATLNNKEKNSILFLNSLDAKEIYLEVIHNLPDFELLSANTLEDRLAHHRWLLFFHFGKNENSNDPELKKLKTLLKNDHIQVGRFDCSSAPDICSNLYVFQPSLAVFKGQGTKEYEIHHGKKILYDILAFAKESVNSHVTTLGPQNFPANDKEPWLVDFFAPWCPPCRALLPELRRASNLLYGQLKFGTLDCTVHEGLCNMYNIQAYPTTVVFNQSNIHEYEGHHSAEQILEFIEDLMNPSVVSLTPTTFNELVTQRKHNEVWMVDFYSPWCHPCQVLMPEWKRMARTLTGLINVGSIDCQQYHSFCAQENVQRYPEIRFFPPKSNKAYHYHSYNGWNRDAYSLRIWGLGFLPQVSTDLTPQTFSEKVLQGKNHWVIDFYAPWCGPCQNFAPEFELLARMIKGKVKAGKVDCQAYAQTCQKAGIRAYPTVKFYFYERAKRNFQEEQINTRDAKAIAALISEKLETLRNQGKRNKDEL
B3: structural maintenance of chromosomes 1A (protein, UniProt Q14683 1-1233)
chain: MGFLKLIEIENFKSYKGRQIIGPFQRFTAIIGPNGSGKSNLMDAISFVLGEKTSNLRVKTLRDLIHGAPVGKPAANRAFVSMVYSEEGAEDRTFARVIVGGSSEYKINNKVVQLHEYSEELEKLGILIKARNFLVFQGAVESIAMKNPKERTALFEEISRSGELAQEYDKRKKEMVKAEEDTQFNYHRKKNIAAERKEAKQEKEEADRYQRLKDEVVRAQVQLQLFKLYHNEVEIEKLNKELASKNKEIEKDKKRMDKVEDELKEKKKELGKMMREQQQIEKEIKEKDSELNQKRPQYIKAKENTSHKIKKLEAAKKSLQNAQKHYKKRKGDMDELEKEMLSVEKARQEFEERMEEESQSQGRDLTLEENQVKKYHRLKEEASKRAATLAQELEKFNRDQKADQDRLDLEERKKVETEAKIKQKLREIEENQKRIEKLEEYITTSKQSLEEQKKLEGELTEEVEMAKRRIDEINKELNQVMEQLGDARIDRQESSRQQRKAEIMESIKRLYPGSVYGRLIDLCQPTQKKYQIAVTKVLGKNMDAIIVDSEKTGRDCIQYIKEQRGEPETFLPLDYLEVKPTDEKLRELKGAKLVIDVIRYEPPHIKKALQYACGNALVCDNVEDARRIAFGGHQRHKTVALDGTLFQKSGVISGGASDLKAKARRWDEKAVDKLKEKKERLTEELKEQMKAKRKEAELRQVQSQAHGLQMRLKYSQSDLEQTKTRHLALNLQEKSKLESELANFGPRINDIKRIIQSREREMKDLKEKMNQVEDEVFEEFCREIGVRNIREFEEEKVKRQNEIAKKRLEFENQKTRLGIQLDFEKNQLKEDQDKVHMWEQTVKKDENEIEKLKKEEQRHMKIIDETMAQLQDLKNQHLAKKSEVNDKNHEMEEIRKKLGGANKEMTHLQKEVTAIETKLEQKRSDRHNLLQACKMQDIKLPLSKGTMDDISQEEGSSQGEDSVSGSQRISSIYAREALIEIDYGDLCEDLKDAQAEEEIKQEMNTLQQKLNEQQSVLQRIAAPNMKAMEKLESVRDKFQETSDEFEAARKRAKKAKQAFEQIKKERFDRFNACFESVATNIDEIYKALSRNSSAQAFLGPENPEEPYLDGINYNCVAPGKRFRPMDNLSGGEKTVAALALLFAIHSYKPAPFFVLDEIDAALDNTNIGKVANYIKEQSTCNFQAIVISLKEEFYTKAESLIGVYPEQGDCVISKVLTFDLTKYPDANPNPNEQ
B4: single stranded DNA binding protein 1 (protein, UniProt Q04837 17-148)
chain: ESETTTSLVLERSLNRVHLLGRVGQDPVLRQVEGKNPVTIFSLATNEMWRSGDSEVYQLGDVSQKTTWHRISVFRPGLRDVAYQYVKKGSRIYLEGKIDYGEYMDKNNVRRQATTIIADNIIFLSDQTKEKE
B5: serpin family H member 1 (protein, UniProt P50454 19-418)
chain: AEVKKPAAAAAPGTAEKLSPKAATLAERSAGLAFSLYQAMAKDQAVENILVSPVVVASSLGLVSLGGKATTASQAKAVLSAEQLRDEEVHAGLGELLRSLSNSTARNVTWKLGSRLYGPSSVSFADDFVRSSKQHYNCEHSKINFRDKRSALQSINEWAAQTTDGKLPEVTKDVERTDGALLVNAMFFKPHWDEKFHHKMVDNRGFMVTRSYTVGVMMMHRTGLYNYYDDEKEKLQIVEMPLAHKLSSLIILMPHHVEPLERLEKLLTKEQLKIWMGKMQKKAVAISLPKGVVEVTHDLQKHLAGLGLTEAIDKNKADLSRMSGKKDLYLASVFHATAFELDTDGNPFDQDIYGREELRSPKLFYADHPFIFLVRDTQSGSLLFIGRLVRPKGDKMRDEL
B6: DNA polymerase delta 3, accessory subunit (protein, UniProt Q15054 1-466)
chain: MADQLYLENIDEFVTDQNKIVTYKWLSYTLGVHVNQAKQMLYDYVERKRKENSGAQLHVTYLVSGSLIQNGHSCHKVAVVREDKLEAVKSKLAVTASIHVYSIQKAMLKDSGPLFNTDYDILKSNLQNCSKFSAIQCAAAVPRAPAESSSSSKKFEQSHLHMSSETQANNELTTNGHGPPASKQVSQQPKGIMGMFASKAAAKTQETNKETKTEAKEVTNASAAGNKAPGKGNMMSNFFGKAAMNKFKVNLDSEQAVKEEKIVEQPTVSVTEPKLATPAGLKKSSKKAEPVKVLQKEKKRGKRVALSDDETKETENMRKKRRRIKLPESDSSEDEVFPDSPGAYEAESPSPPPPPSPPLEPVPKTEPEPPSVKSSSGENKRKRKRVLKSKTYLDGEGCIVTEKVYESESCTDSEEELNMKTSSVHRPPAMTVKKEPREERKGPKKGTAALGKANRQVSITGFFQRK

What follows are binders tested against T1, FLAG-tagged SMCR8 (Smith-Magenis Syndrome Chromosome Region, Candidate 8) (assay: affinity purification with mass spectrometry; FL-SMCR8, C9orf72-FL or empty vector transfected in HEK 293T; α-FLAG agarose IP from whole cell lysates with or without RNase; LC-MS/MS; hits with three or more spectra and not detected in vector only control).

binding | Binder
binds | B1
binds | B2
binds | B3
binds | B4
binds | B5
binds | B6
